Assay results from US20180200257A1, “METHODS FOR THE TREATMENT OF INFLAMMATORY DISORDERS” (Galapagos NV, priority 2015, published 2018).
Further values from the same series stand in other lists.

System: subjects with moderately to severely active RA who have an inadequate response to methotrexate (MTX)
Assay: Study 2 (monotherapy) - DAS28(CRP) scores
Assay type: in vivo, human
Settings: 24 weeks results
From the text: Randomized, double-blind, placebo-controlled, multicenter, phase IIb dose finding study of Compound 1 (dosed as a [Compound 1:HCl:3H2O]) administered for 24 weeks as monotherapy to subjects with moderately to severely active rheumatoid arthritis who have an inadequate response to methotrexate alone
Double-blind, placebo-controlled, monotherapy study in subjects with moderately to severely active RA who have an inadequate response to methotrexate (MTX) (oral or parenteral).
280 subjects randomized to one of 3 doses of Compound 1 (dosed as a [Compound 1:HCl:3H2O]) or to placebo, given once daily (q.d.).
Twelve weeks of treatment with Compound 1 (dosed as a [Compound 1:HCl:3H2O]) at 50 mg, 100 mg, or 200 mg q.d.; or placebo. At Week 12, all subjects on placebo and the subjects on the 50 mg dose who have not achieved 20% improvement in swollen joint count (SJC66) and tender joint count (TJC68) will be assigned to 100 mg q.d. in a blinded fashion and will continue treatment until Week 24. Subjects in the other groups will maintain their randomized treatment until Week 24.
The (DAS28(CRP)) is a system developed and validated by the European League Against Rheumatism (EULAR) to measure the progress and improvement of rheumatoid arthritis and has been extensively validated (Wells et al., 2008). The DAS28(CRP) scoring includes a 28 tender and swollen joint count, CRP measurement from blood analysis, and a general health assessment on a visual analog scale (Fransen et al., 2003).
DAS28(CRP) values range from 2.0 to 10.0, and more particularly reflect the following status: • Remission: DAS28(CRP) ≤2.6 • Low Disease activity: 2.6 <DAS28(CRP) ≤3.2 • Moderate Disease Activity: 3.2 <DAS28(CRP) ≤5.1 • High Disease Activity: DAS28(CRP) >5.1
In practice, the DAS28(CRP) measurement involves the evaluation 28 different joints including in the measurement (proximal interphalangeal joints (10 joints), metacarpophalangeal joints (10), wrists (2), elbows (2), shoulders (2), and knees (2)). When looking at these joints, both the number of joints with tenderness upon touching and swelling are counted.
Secondly, C-reactive protein level is measured.
Finally, the patient makes a subjective assessment of disease activity during the preceding 7 days on a scale between 0 and 100, where 0 is “no activity” and 100 is “highest activity possible”.
The DAS28(CRP) score is then calculated as follows:
Firstly, the patient is asked to make a vertical mark on a 100 mm Visual Analog Scale (VAS) corresponding to their general health or global disease activity on a touch screen to measure the VAS value, which is used in the formula below.
Secondly, a swollen and tender joint examination is then performed on the patient. The swollen and tender joints are recorded. From this examination are obtained the total amount of swollen joints (SJC) and the total amount of tender joints (TJC), which are used in the formula below.
Thirdly, C-reactive protein (CRP) levels are measured.
Finally, the values obtained above (VAS, TJC28, SJC28, and CRP) are computed into the following Formula to obtain the DAS28(CRP) score.
DAS28(CRP)=0.56*√{square root over (TJC28)}+0.28√{square root over (SJC28)}+[…] ln(CRP+1)+0.014*VAS
The improvement (decreases) in the DAS28(CRP) scores for each patient group at weeks 1, 2, 4, 8 and 12 is shown in Table LXXXVII and Table LXXXVIII below, together with the Hommel-corrected p-value for the pairwise comparisons of each group with placebo.
The number of subjects (N) provided in each groups corresponds to the number of subjects starting the study in each group, and the DAS28 (CRP) data reported below corresponds to the responding subjects continuing for the entire 24 weeks on their initial treatment course.

O=C(Nc1nc2cccc(-c3ccc(CN4CCS(=O)(=O)CC4)cc3)n2n1)C1CC1 [Compound 1, cyclopropanecarboxylic acid {5-[4-(1,1-dioxo-thiomorpholin-4-ylmethyl)-phenyl]-[1,2,4]triazolo[1,5-a]pyridin-2-yl}-amide]
DAS28(CRP) mean CFB (LOCF) (50 mg q.d., Week 1): −0.75 | DAS28(CRP) mean CFB (LOCF) (50 mg q.d., week 12): −1.75 | DAS28(CRP) mean CFB (LOCF) (50 mg q.d., week 16): −1.88 | DAS28(CRP) mean CFB (LOCF) (50 mg q.d., week 20): −1.83 | DAS28(CRP) mean CFB (LOCF) (50 mg q.d., week 24): −1.95 | DAS28(CRP) mean CFB (LOCF) (100 mg q.d., Week 1): −0.87 | DAS28(CRP) mean CFB (LOCF) (100 mg q.d., week 8): −1.89 | DAS28(CRP) mean CFB (LOCF) (100 mg q.d., week 12): −2.04 | DAS28(CRP) mean CFB (LOCF) (100 mg q.d., week 16): −2.39 | DAS28(CRP) mean CFB (LOCF) (100 mg q.d., week 20): −2.48 | DAS28(CRP) mean CFB (LOCF) (100 mg q.d., week 24): −2.61 | DAS28(CRP) mean CFB (LOCF) (200 mg q.d., Week 1): −1.16 | DAS28(CRP) mean CFB (LOCF) (200 mg q.d., week 8): −2.23 | DAS28(CRP) mean CFB (LOCF) (200 mg q.d., week 12): −2.32 | DAS28(CRP) mean CFB (LOCF) (200 mg q.d., week 16): −2.53 | DAS28(CRP) mean CFB (LOCF) (200 mg q.d., week 20): −2.55 | DAS28(CRP) mean CFB (LOCF) (200 mg q.d., week 24): −2.62
